Experimental data from US20220332791A1 (ALIVEGEN, published 2022).
No constants are given. Whether binding was seen depends on the method and setting. Some binding calls cover weakened binding; strength is not graded here.

By UniProt entry, the sequences of proteins in these tests, tags left out. Where a name states a change or a piece, a line headed by the entry shows the natural chain unless it says otherwise.
UniProt P27037: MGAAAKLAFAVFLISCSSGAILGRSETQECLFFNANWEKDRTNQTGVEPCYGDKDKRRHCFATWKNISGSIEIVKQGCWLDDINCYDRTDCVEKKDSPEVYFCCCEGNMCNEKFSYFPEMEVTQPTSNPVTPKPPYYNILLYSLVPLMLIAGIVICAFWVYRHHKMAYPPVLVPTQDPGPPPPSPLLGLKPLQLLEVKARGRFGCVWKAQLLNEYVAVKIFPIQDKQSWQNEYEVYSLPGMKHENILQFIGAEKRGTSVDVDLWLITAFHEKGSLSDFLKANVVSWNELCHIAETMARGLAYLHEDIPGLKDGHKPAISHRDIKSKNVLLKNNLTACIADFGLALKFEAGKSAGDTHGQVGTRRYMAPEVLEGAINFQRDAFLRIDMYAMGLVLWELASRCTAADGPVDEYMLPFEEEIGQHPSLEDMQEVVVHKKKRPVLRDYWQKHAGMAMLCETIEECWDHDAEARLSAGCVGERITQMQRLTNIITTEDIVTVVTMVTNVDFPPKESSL

How the values were obtained:
BMP9 [1] = target: T1, BMP9 (UniProt Q9UK05 320-429); assay: automated ELISA on KinExA: BMP9-coupled Sepharose beads, captured Fc fusion detected with Alexa Fluor 647 goat anti-human Fc
T1 sequence (looked up): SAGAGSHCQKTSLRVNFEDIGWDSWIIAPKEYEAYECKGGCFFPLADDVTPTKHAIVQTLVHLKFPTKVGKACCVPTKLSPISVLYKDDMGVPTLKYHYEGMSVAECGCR

BMP9 [2] = target: T1, BMP9; assay: automated ELISA on BMP9-coated beads (KinExA instrument), 100 pM, 1 nM and 10 nM; reference of the comparison

binding (BMP9 [1]): binds
binding (BMP9 [2]): binds
Substance: wild-type ActRIIA ECD-Fc (from UniProt P27037 20-135) (Fc fusion)
